Reference: US20230323296A1, “STEM CELL-LIKE MEMORY T CELLS AND USES THEREOF” (GEORGETOWN UNIVERSITY, priority 2020, published 2023)
At least one structure is not confirmed: it was looked up by name or label, or the drawing left a doubt.

System: TC1 cells
Experiment: Anti-tumor efficacy of MEKi with anti-OX40 antibody in TC1 tumor model
Format: in vivo, C57BL/6 mice
Settings: in combination with anti-OX40 antibody (OX86, 1 mg/kg i.p.) in E7 peptide vaccinated animals, MEKi 10 mg/Kg oral gavage D6-D20

Cn1cnc2c(F)c(Nc3ccc(Br)cc3Cl)c(C(=O)NOCCO)cc21 [MEKi (6244), selumitinib]
tumor growth (FIG. 6B): significantly reduced | mice survival (FIG. 6C): significant increase
